Measurements as given in PubChem BioAssay AID493014 (National Center for Advancing Translational Sciences (NCATS), 2011).
The list shows a part of the results. Further columns of the screen follow, without active or inactive calls. The list favours compounds with an active or inconclusive main result. Potencies come from curve fits of mixed quality, noted in brackets.

Test: qHTS Assay to Find Inhibitors of Chronic Active B-Cell Receptor Signaling
Settings: ABC-DLBCL IkBa-CBG/CBR reporter, luminescence ratio (green luciferase fused to IkBa over red control in TMD8 lymphoma cells), 4 h
How it was run: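 Concentration-response series (up to 46 uM) were applied to TMD8 dual-reporter cells for 4 h at 37C with doxycycline. Green/red ratio, after filter-overlap correction, defined %Activity; red signal alone was normalised to basal cells and zero luminescence.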

[1] = measured here: CBR red luminescence, cell number
[2] = measured here: IkBa-CBG green luminescence

SMILES | AC50 [1] | AC50 [2]
O=C(COC(=O)Cc1cccs1)Nc1ccccc1F | 0.184 µM [falling, full curve, poor fit] | 
NS(=O)(=O)c1ccc(N=Nc2c[nH]c(=O)c(O)c2)cc1 | 10 µM [rising, partial curve, poor fit] | 17.8 µM [rising, partial curve, poor fit]
C/C(=N\NC(=O)c1csc2ccccc12)c1ccc(O)cc1 | 2.06 µM [falling, full curve, poor fit] | 
Cc1nnc(SCC(=O)c2c[nH]c3ccccc23)n1C1CC1 | 32.6 µM [falling, partial curve, poor fit] | 
CC(c1ccccc1)C1C(C#N)=C(N)OC2=C1C(=O)CC(C)(C)C2 (configuration not stated) | 35.5 µM [falling, single point] | 
Cc1occc1-c1n[nH]c(=S)n1CC(C)C | 3.66 µM [rising, partial curve, poor fit] | 
CCOC(=O)CN1CC23C=CC(O2)C(C(=O)Nc2ccc(F)c(C)c2)C3C1=O (configuration not stated) | 14.6 µM [rising, partial curve, poor fit] | 
O=C1c2ccccc2C(O)N1Cc1cccs1 (configuration not stated) | 6.31 µM [rising, single point] | 
Cc1cccc(NC(=S)NNC(=O)c2csc(C)c2)c1 | 20.6 µM [falling, partial curve] | 
COC(=O)CCC(=O)Nc1cc(Cl)cc(Cl)c1 |  | 5.01 µM [rising, full curve]
O=C(c1cnc(Cl)c(Cl)c1)N1CCN(S(=O)(=O)c2ccc3ccccc3c2)CC1 | 13 µM [falling, partial curve] | 
CCNC(=S)N/N=C(\C)c1ccc2ccccc2c1 | 8.91 µM [falling, partial curve, poor fit] | 25.1 µM [falling, single point]
Cc1cc(C)c2c(N)c(C(=O)c3cccc(Cl)c3)sc2n1 | 5.8 µM [rising, partial curve, poor fit] | 
CCCn1c2ccc(/C(C)=N\O)cc2c2cc(/C(C)=N/O)ccc21 | 7.94 µM [falling, partial curve, poor fit] | 
CC1(OC(=O)CCc2ccccc2)C(=O)C=C2C=C(c3ccc(C#N)cc3)N(Cc3ccco3)C=C2C1=O (configuration not stated) | 0.112 µM [rising, full curve, poor fit] | 
Cc1ccnc(NC(=O)C2COc3ccccc3O2)c1 (configuration not stated) | 11.6 µM [falling, partial curve, poor fit] | 
CC(C)NCC(O)(c1ccc(Cl)cc1)c1ccc(Cl)cc1 | 35.5 µM [falling, single point] | 
N#CCSc1nccc(-c2cc(Cl)sc2Cl)n1 | 3.26 µM [rising, full curve, poor fit] | 
COc1cc(NC(=O)COc2cccc(C)c2C)ccc1NC(=O)c1ccco1 | 6.31 µM [rising, partial curve, poor fit] | 
CCOc1ccc(N(CC(=O)NC(C)C)C(=O)CCC(=O)Nc2ccccn2)cc1 | 11.2 µM [falling, partial curve] | 

Record cards (already shown).
CCCn1c2ccc(/C(C)=N\O)cc2c2cc(/C(C)=N/O)ccc21 reads AC50 [1]: 7.94 µM [falling, partial curve, poor fit]
CC1(OC(=O)CCc2ccccc2)C(=O)C=C2C=C(c3ccc(C#N)cc3)N(Cc3ccco3)C=C2C1=O (configuration not stated) reads AC50 [1]: 0.112 µM [rising, full curve, poor fit]
N#CCSc1nccc(-c2cc(Cl)sc2Cl)n1 reads AC50 [1]: 3.26 µM [rising, full curve, poor fit]

(list continues)

SMILES | AC50 [1] | AC50 [2]
O=C(NCCCN1CCCC1)C1CCN(C(=O)c2cc3sccc3n2Cc2ccc(F)cc2)CC1 | 23.1 µM [rising, single point] | 
c1ccc2c(c1)nc(N1CCOCC1)c1c3ccccc3[nH]c21 | 35.5 µM [falling, partial curve, poor fit] | 
CC[C@H](C)[C@H](NC(N)=O)C(=O)Nc1ccccc1F | 17.8 µM [falling, single point] | 
CCC1(C)Cc2c(sc3nnn(CC(=O)Nc4ccc(Cl)cc4)c(=O)c23)CO1 (configuration not stated) | 7.08 µM [falling, full curve] | 
CCCCN(C(=O)CSc1nnc2ccccn12)c1c(N)n(Cc2ccccc2)c(=O)[nH]c1=O | 4.11 µM [rising, partial curve, poor fit] | 
Cc1cc(NN)nc(NS(=O)(=O)c2ccc(Cl)cc2)n1 | 17.8 µM [falling, single point] | 
Cc1cc(C)n(NC(=S)NC2CCCC2)c(=O)c1C#N | 0.0891 µM [rising, full curve, poor fit] | 
Cc1ccccc1Nc1nc(-c2sc(NC(=O)c3ccccc3)nc2C)cs1 | 11.2 µM [falling, partial curve, poor fit] | 
COc1ccc(CNc2cc(C)ccc2C)c(OC)c1OC | 29.1 µM [rising, single point] | 
O=C(NNC(=O)c1ccccc1[N+](=O)[O-])Nc1ccccc1C(F)(F)F | 0.562 µM [falling, full curve] | 
Cc1cc(=O)[nH]c2nnc(SCc3c(F)cccc3Cl)n12 | 1.58 µM [rising, partial curve, poor fit] | 
COc1cc(/C=N\NC(=O)c2ccc(C)nc2)ccc1OC(=O)c1ccc2c(c1)OCO2 | 6.31 µM [falling, single point] | 
CC1CCCCC1NC(=O)C1CCN(S(=O)(=O)c2cccc3nsnc23)CC1 (configuration not stated) | 4.61 µM [rising, partial curve, poor fit] | 
CC(O)CNCCCOc1cccc(Oc2ccccc2)c1 (configuration not stated) | 11.2 µM [falling, single point] | 
Cc1occc1C(=O)N/N=C/c1cccc2ccccc12 | 15.8 µM [falling, single point] | 
CCOc1ccc(/C=C2/C(=O)N(c3ccc(OC)cc3)C(=S)N2CC(=O)OC)cc1OCC | 18.4 µM [rising, partial curve, poor fit] | 
CC(=O)Nc1cccc(C(=O)OC(C)C(=O)Nc2ccc(S(=O)(=O)N3CCCC3)cc2)c1 (configuration not stated) | 23.1 µM [rising, partial curve, poor fit] | 
C=CCNC(=O)c1onc(CSc2cccc(Cl)c2)c1C(=O)O | 22.4 µM [falling, partial curve] | 
CCOC(=O)/C=C/[C@H]1CCc2cccc(C)c2O1 | 29.1 µM [rising, single point] | 
Cc1sc(NC(=O)c2cccc(N3C(=O)CCC3=O)c2)nc1-c1ccccc1 | 25.9 µM [falling, single point] | 
